# Screening data, single-dose tests

The chains behind the UniProt entries cited, without tags or fusion partners. Residues count along the entry.
UniProt Q4DA54, 1-478: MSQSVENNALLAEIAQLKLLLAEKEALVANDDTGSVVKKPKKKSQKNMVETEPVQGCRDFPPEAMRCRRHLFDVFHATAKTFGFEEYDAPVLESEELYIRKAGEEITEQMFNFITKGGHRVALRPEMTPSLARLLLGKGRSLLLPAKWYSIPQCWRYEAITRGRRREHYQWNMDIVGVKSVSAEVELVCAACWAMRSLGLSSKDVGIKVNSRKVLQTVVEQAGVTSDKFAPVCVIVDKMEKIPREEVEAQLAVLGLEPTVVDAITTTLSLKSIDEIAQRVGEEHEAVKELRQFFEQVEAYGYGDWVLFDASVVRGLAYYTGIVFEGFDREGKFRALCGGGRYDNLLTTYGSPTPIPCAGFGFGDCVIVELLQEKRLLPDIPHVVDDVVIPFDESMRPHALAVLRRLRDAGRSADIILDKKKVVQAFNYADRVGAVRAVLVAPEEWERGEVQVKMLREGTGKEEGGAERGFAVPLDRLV

Measurements from “University of Dundee, Small-Polar-MMV Screening Library” (2021), ChEMBL document CHEMBL3988442.

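Enzyme assay of histidyl-tRNA synthetase; the read-out is not stated. Target: Histidine-tRNA ligase, Trypanosoma cruzi CL Brener (UniProt Q4DA54). Concentration: 30 µM. The record gives no direction; compounds that gave an IC50 in retests scored well above the rest, so higher reads as stronger inhibition. Size under these conditions: about 69,000 compounds, about 31 of them at 50% or above in at least one test.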

Values are the deposited “Percent Effect”, in %. The record does not define 0% and 100%; most values in the screen are far below 50% and negative numbers occur (in some assays of this library far below -100). This is an unselected part of the compounds tested.

SMILES | effect
COC(=O)c1ccc(C(=O)NCc2ccc(Br)cc2)cn1 | 3.911%
CC(C)[C@H](N)CC(=O)Nc1nc(-c2cnc(N3CCOCC3)nc2)cs1 | 10.17%
Cc1ncccc1Oc1nccnc1C1CCN(S(C)(=O)=O)CC1 | 8.791%
CCc1cc(-c2ccnc3c2ccn3C)nc(N2CCOCC2)n1 | 14.85%
CN(C)c1ncc(I)c(C2CCCN2S(C)(=O)=O)n1 (centres undefined) | 5.747%
CCc1nc(CN2CCCC(N(C)CCc3cccs3)C2)no1 (centres undefined) | 3.518%
Cc1ccccc1OC1(C(=O)O)CCN(C(=O)CCc2ccco2)CC1 | 5.579%
CC(C)CN1CCN(S(=O)(=O)c2cn(C)cn2)[C@H]2CS(=O)(=O)C[C@H]21 | -3.59%
CC(C)c1noc(CCCC(=O)N2CCN(Cc3ccsc3)CC2)n1 | 4.094%
Cc1nccn1CCN(C)C(=O)c1cn(-c2ccccc2)nn1 | 6.468%
COc1ccc(CCC2CCCCN2)cc1 (centres undefined) | 5.941%
N#Cc1ncn(CCS(=O)(=O)c2ccc(Br)cc2)n1 | 4.433%
O=C(NCc1ccccc1OCCO)Nc1ccc2c(c1)CCC2 | -1.02%
CSC(C)C(=O)N1CCCN(Cc2cnn(C(C)C)c2)CC1 (centres undefined) | 3.759%
Cn1cnn(CC(=O)NCc2ccccc2F)c1=O | 10.78%
CCc1n[nH]c(C2CN(CC(=O)N(C)Cc3ccco3)CCO2)n1 (centres undefined) | 6.522%
CC(OCC(F)(F)F)C(=O)NCc1ccc(-n2cncn2)nc1 (centres undefined) | -9.434%
CCNC(=O)c1ccc(NC2CCOC3(CCCC3)C2)nn1 (centres undefined) | -1.657%
Cc1ccc(N2CCC3(CCC(=O)N3Cc3ccncc3)CC2)nn1 | 1.508%
CC(CN1CCOCC1)NC(=O)NCc1cccs1 (centres undefined) | 11.67%
O=c1c(S(=O)(=O)N2CCCC2)cccn1Cc1c(F)cccc1Cl | 8.808%
O=C1CSC(c2cccnc2)c2c(n(C3CCOCC3)[nH]c2=O)N1 (centres undefined) | 0.5848%
CCN1CCNC(=O)C12CCN(C(=O)Cc1ccsc1)CC2 | 5.028%
CCOC(=O)N1CCN(C(=O)c2sc(-c3ccc(F)cc3)nc2C)CC1 | 0.8264%
CC(C1CC1)N(C)Cc1nnc(-c2ccc(Br)s2)o1 (centres undefined) | 6.122%
COc1ccc(C2=CCN(C(=O)C3CCC3)CC2)cc1 | 4.046%
CC(C)CC(CCO)CNC(=O)N1CCCC1(C)C (centres undefined) | 3.03%
CC(C)n1cc(CN2CCCN(C(=O)CC3CCCO3)CC2)cn1 (centres undefined) | 4.651%
Cc1cc(NC(=O)NCc2ccccn2)n(C)n1 | 3.383%
CN(Cc1cscn1)C1CCCN(Cc2noc(C3CC3)n2)C1 (centres undefined) | 1.515%
Cc1cc2ccncc2n1CC1(O)CCN(C(=O)c2ccncc2)CC1 | 4.981%
CCCc1cc(C(=O)N(C)Cc2cnc3ccccc3n2)n(C)n1 | 5.021%
CCN(C)CC(=O)N1CCN(Cc2ccccc2)[C@@H]2CS(=O)(=O)C[C@@H]21 | 0%
CCc1nc(C2CCCN2C(=O)CCCn2cncn2)no1 (centres undefined) | -1.143%
COc1ccc(-c2ccccc2CN)c(OC)c1 | 8.434%
Cc1ccc([C@]2(O)CC[C@H]3CN(Cc4cccnc4)C[C@H]32)nc1 | 5.556%
O=C(O)c1cc(S(=O)(=O)Nc2cc(Cl)ccc2F)cc2c1OCCO2 | -1.127%
CC(c1nc(C2CC2)no1)N(C)Cc1cccc(F)c1 (centres undefined) | 1.657%
O=C(c1cnccn1)N1CCCC2(CCN(Cc3ccsc3)CC2)C1 | 1.905%
N#Cc1ccc(OC2CCN(C(=O)c3cncc(Br)c3)CC2)nc1 | 4.082%
O=C1NC[C@]2(CC[C@@H](C(=O)N3CCCC(O)C3)CC2)Oc2ccccc21 (some centres undefined) | 5.323%
O=C(NCC1CC1)[C@H]1C[C@@H]2CN(C(=O)NCC3CCCCC3)C[C@H]1O2 | 0%
CSC(C)(C)CNC(=O)NC1CCN(CC(F)F)CC1 | 8.333%
O=C(Cc1csc(-c2ccco2)n1)N1CCN(c2ccccc2O)CC1 | 11.83%
CCc1noc(CN(CC)Cc2cc3cc(C)ccc3[nH]c2=O)n1 | 13.6%
Cc1cc(C(F)F)nn1CC(=O)NCc1nccn1C | 0%
Cc1cnn(CCCN2C(=O)CCc3ccccc32)c1 | 4.202%
NCCO[C@H]1C[C@@H](O)C12CCN(Cc1c(F)cccc1F)CC2 | 11.49%
CCc1nn(C)c(Cl)c1CN1CCC(Cc2nncn2C)CC1 | 3.614%
Cc1ccc(CN(C(=O)NCC2CCCO2)C2CC2)o1 (centres undefined) | 8.995%
CC1CN(C(=O)NCc2cnn(-c3ccc(F)cc3F)c2)CCO1 (centres undefined) | 0%
NCc1cccc(-c2cccnc2C(=O)NCCN2CCCC2)c1 | 22.18%
CC(C)c1nnsc1CNC(=O)C1CCN(C(=O)C2CC2)CC1 | 1.657%
Cc1cc(C)n(-c2cncc(NCCNC(=O)C(C)(C)C)n2)n1 | 1.205%
Cc1cn[nH]c1C1COCCN1Cc1cscn1 (centres undefined) | 3.03%
Cc1noc(C)c1CN1CC[C@H]2OCC[C@@]2(C(=O)N2CCCO2)C1 | 6.011%
Cn1cc(CN2CCC3(CC2)CCN(C(=O)c2cscn2)C3)cn1 | 3.509%
CC(C)=CCCC(C)CN1CCC(n2cc(CO)nn2)CC1 (centres undefined) | 8.466%
O=C(C1CCOC1)N1CCC(OCc2ccccc2)CC1 (centres undefined) | 7.463%
COCC(=O)N1CCCC(C(=O)NCc2cc(CC(C)C)on2)C1 (centres undefined) | 4.545%
CC(=O)N1CC(=O)N(c2cnn(C)c2)CC12CCN(CC1CC1)C2 (centres undefined) | 3.743%
Cc1c(Br)cccc1C(=O)NCc1cnn(C)c1 | 8.621%
Cc1cc(C)cc(CNCCS(=O)(=O)N2CCOCC2)c1 | 5.155%
COc1ccc(NC(=O)N2CCCC(CO)C2)c(C)c1 (centres undefined) | 11.9%
COc1ccc2c(c1)OCC(C(=O)NCc1ncc3c(n1)CCC3)C2 (centres undefined) | 6.957%
O=C(NCc1cccnc1N1CCCCC1)c1ccc2c(c1)OCO2 | 10.45%
CCn1cc(N2Cc3nc(N(C)C)ncc3C2=O)cn1 | 6.087%
CC(C)C(=O)N(C)Cc1nnc2n1CCCCC2 | 1.911%
Cc1cccc2c1nc1n2[C@@H](CNC(=O)c2cnccn2)COC1 | 0%
CCS(=O)(=O)N(C)c1ccc(C(=O)N2CCCC(C)C2)cc1 (centres undefined) | 0%
C[C@]1(O)CN(Cc2cscn2)CC[C@@H]1Oc1cccc(F)c1 | 12.09%
CCc1csc(C2CCCN(C(=O)c3ccc(=O)n(C)n3)C2)n1 (centres undefined) | 3.012%
COc1cccc(C(C(=O)O)N2CCCN(C3CCCC3)CC2)c1OC (centres undefined) | 2.174%
O=C(CC(F)(F)F)Nc1cc(F)ccc1OCC1CCCO1 (centres undefined) | 0.5714%
CC(C)c1nccn1C1CCCN(C(=O)c2ccc3c(c2)COC3)C1 (centres undefined) | 5.882%
O=C(Cn1ccnc1)N1C[C@@H]2CC[C@H](Oc3ccc(Cl)cc3)[C@@H]2C1 | 13.33%
CCC(=O)N1CCCC(Cn2cc(-c3ccc(F)cc3)nn2)C1 (centres undefined) | 7.179%
CCOc1cccc2c1OCC(C(=O)NS(=O)(=O)c1c(C)noc1C)=C2 | 2.579%
COc1ccc(N2CCCC3(C2)CN(c2ncccn2)CCO3)cc1 (centres undefined) | 10.34%
O=S(=O)(c1c(F)cccc1F)N1CCC(Cn2cccn2)CC1 | 2.222%
CC1CCN(c2ncc3c(n2)CN(c2ccc(F)cc2)C3=O)CC1 | -4.386%
OC[C@H]1CCCN1c1nccc(-c2cncnc2C2CCCCC2)n1 | 9.04%
NC(=O)C1CN(c2ncnc3c2Cc2ccccc2OC3)CCO1 (centres undefined) | -3.865%
Cc1cccc(CS(=O)(=O)CC(O)Cn2cccn2)c1 (centres undefined) | -22.34%
CN(Cc1nnc2n1CCC2)C(=O)c1ccc2c(c1)OCO2 | 1.453%
COc1ccnc(N2CCCN(c3nc(C4CC4)ns3)CC2)n1 | 4.082%
O=C(Cc1n[nH]c2ccccc12)N1CCC(Nc2cccnn2)CC1 | 3.422%
Cc1cnccc1CN(C)C(=O)c1cccc(CCC(C)(C)O)c1 | 1.117%
CCOC(=O)c1ccc(NC(=O)c2cc3c([nH]c2=O)CCCC3)cc1 | 4.433%
O=C(c1nnn(-c2ccccc2Cl)c1-c1ccccn1)N1CCSCC1 | 5.155%
NC(=O)c1noc(Cn2ncc3ccccc3c2=O)n1 | -0.6369%
COc1cccc(CCC2CCCN(C(=O)c3ccccn3)C2)c1 (centres undefined) | 0.9804%
Cc1cnn(CCNCC(O)c2ccc(C(F)(F)F)cc2)c1 (centres undefined) | 2.762%
Nc1nc2c(c(NCC(c3cccnc3)N3CCOCC3)n1)CCCC2 (centres undefined) | -1.212%
CC1(Cc2ccc3c(c2)OCO3)CCCN(S(=O)(=O)N2CCOCC2)C1 (centres undefined) | 3.784%

Some entries from above, unchanged:

SMILES	effect
Cc1cc(C)cc(CNCCS(=O)(=O)N2CCOCC2)c1	5.155%
C[C@]1(O)CN(Cc2cscn2)CC[C@@H]1Oc1cccc(F)c1	12.09%
CCc1cc(-c2ccnc3c2ccn3C)nc(N2CCOCC2)n1	14.85%
OC[C@H]1CCCN1c1nccc(-c2cncnc2C2CCCCC2)n1	9.04%
Cc1ccccc1OC1(C(=O)O)CCN(C(=O)CCc2ccco2)CC1	5.579%
Cc1cc(C(F)F)nn1CC(=O)NCc1nccn1C	0%